Data from paper PMC11334570.
Results are given in words; binding and its absence hold for the method and conditions named. Binding seen in cells or lysates may run through a third protein. Here binding means that the protein was enriched with, or labelled near, the bait; the list need not be complete. Blank lines part the entries; values can stand above or below the molecule they belong to.

The chains behind the UniProt entries cited, without tags or fusion partners.
UniProt O00425: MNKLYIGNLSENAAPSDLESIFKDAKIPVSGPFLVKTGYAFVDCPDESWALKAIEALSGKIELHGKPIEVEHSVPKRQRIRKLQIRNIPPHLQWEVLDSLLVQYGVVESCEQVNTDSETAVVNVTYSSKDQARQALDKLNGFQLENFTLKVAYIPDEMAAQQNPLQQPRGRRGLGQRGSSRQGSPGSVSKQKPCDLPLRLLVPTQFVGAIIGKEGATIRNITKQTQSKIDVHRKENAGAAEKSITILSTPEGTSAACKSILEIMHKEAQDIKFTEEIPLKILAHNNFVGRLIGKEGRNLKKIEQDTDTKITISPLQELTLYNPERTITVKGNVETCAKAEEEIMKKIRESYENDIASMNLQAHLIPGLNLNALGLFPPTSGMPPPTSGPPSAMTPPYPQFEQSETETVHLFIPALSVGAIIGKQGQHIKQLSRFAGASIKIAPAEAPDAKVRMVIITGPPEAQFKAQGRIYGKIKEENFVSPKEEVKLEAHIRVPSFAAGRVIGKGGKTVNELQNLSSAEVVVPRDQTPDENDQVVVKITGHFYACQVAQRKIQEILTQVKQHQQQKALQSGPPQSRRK

Biological target: T1, Ubiquitin-specific protease 15 (USP15), endogenous (human (endogenous in SGC7901)) (UniProt Q9Y4E8)
T1 sequence: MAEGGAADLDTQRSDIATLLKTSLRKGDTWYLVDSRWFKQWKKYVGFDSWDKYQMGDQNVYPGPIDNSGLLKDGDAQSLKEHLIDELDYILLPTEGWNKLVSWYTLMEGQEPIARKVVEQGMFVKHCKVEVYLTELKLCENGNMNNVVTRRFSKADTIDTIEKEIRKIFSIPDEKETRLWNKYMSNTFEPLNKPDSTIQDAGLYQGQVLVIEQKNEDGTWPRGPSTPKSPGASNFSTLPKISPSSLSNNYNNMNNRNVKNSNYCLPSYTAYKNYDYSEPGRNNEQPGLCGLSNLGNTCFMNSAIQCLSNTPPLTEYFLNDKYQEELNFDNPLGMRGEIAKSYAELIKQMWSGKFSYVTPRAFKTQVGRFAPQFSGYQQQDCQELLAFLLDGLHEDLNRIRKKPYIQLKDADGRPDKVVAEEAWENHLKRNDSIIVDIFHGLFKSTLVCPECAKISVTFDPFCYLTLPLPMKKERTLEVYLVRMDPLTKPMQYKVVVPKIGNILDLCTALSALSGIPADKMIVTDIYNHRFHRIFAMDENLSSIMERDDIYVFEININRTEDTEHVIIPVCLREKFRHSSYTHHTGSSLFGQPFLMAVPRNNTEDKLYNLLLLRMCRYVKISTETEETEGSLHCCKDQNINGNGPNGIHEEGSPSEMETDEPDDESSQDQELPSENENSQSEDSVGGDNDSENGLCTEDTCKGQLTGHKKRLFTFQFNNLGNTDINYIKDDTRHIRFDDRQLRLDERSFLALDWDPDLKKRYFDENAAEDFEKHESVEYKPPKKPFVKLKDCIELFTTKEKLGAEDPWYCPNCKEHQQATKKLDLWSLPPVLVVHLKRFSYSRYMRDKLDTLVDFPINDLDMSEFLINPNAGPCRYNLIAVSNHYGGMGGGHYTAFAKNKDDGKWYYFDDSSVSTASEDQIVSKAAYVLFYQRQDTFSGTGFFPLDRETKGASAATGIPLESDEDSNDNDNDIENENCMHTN
Experiment: affinity purification with mass spectrometry; CoIP-MS: SGC7901 cell lysates immunoprecipitated with anti-USP15 antibody, IgG as negative control; SDS-PAGE, silver staining, MS

binding: binds
Molecule: Insulin like growth factor 2 mRNA binding protein 3 (IGF2BP3), endogenous (from UniProt O00425 1-579)

binding: binds
B1: Hexokinase domain containing 1 (HKDC1), endogenous (enzyme, UniProt Q2TB90 1-917)
chain: MFAVHLMAFYFSKLKEDQIKKVDRFLYHMRLSDDTLLDIMRRFRAEMEKGLAKDTNPTAAVKMLPTFVRAIPDGSENGEFLSLDLGGSKFRVLKVQVAEEGKRHVQMESQFYPTPNEIIRGNGTELFEYVADCLADFMKTKDLKHKKLPLGLTFSFPCRQTKLEEGVLLSWTKKFKARGVQDTDVVSRLTKAMRRHKDMDVDILALVNDTVGTMMTCAYDDPYCEVGVIIGTGTNACYMEDMSNIDLVEGDEGRMCINTEWGAFGDDGALEDIRTEFDRELDLGSLNPGKQLFEKMISGLYLGELVRLILLKMAKAGLLFGGEKSSALHTKGKIETRHVAAMEKYKEGLANTREILVDLGLEPSEADCIAVQHVCTIVSFRSANLCAAALAAILTRLRENKKVERLRTTVGMDGTLYKIHPQYPKRLHKVVRKLVPSCDVRFLLSESGSTKGAAMVTAVASRVQAQRKQIDRVLALFQLTREQLVDVQAKMRAELEYGLKKKSHGLATVRMLPTYVCGLPDGTEKGKFLALDLGGTNFRVLLVKIRSGRRSVRMYNKIFAIPLEIMQGTGEELFDHIVQCIADFLDYMGLKGASLPLGFTFSFPCRQMSIDKGTLIGWTKGFKATDCEGEDVVDMLREAIKRRNEFDLDIVAVVNDTVGTMMTCGYEDPNCEIGLIAGTGSNMCYMEDMRNIEMVEGGEGKMCINTEWGGFGDNGCIDDIWTRYDTEVDEGSLNPGKQRYEKMTSGMYLGEIVRQILIDLTKQGLLFRGQISERLRTRGIFETKFLSQIESDRLALLQVRRILQQLGLDSTCEDSIVVKEVCGAVSRRAAQLCGAGLAAIVEKRREDQGLEHLRITVGVDGTLYKLHPHFSRILQETVKELAPRCDVTFMLSEDGSGKGAALITAVAKRLQQAQKEN
